{
  "sequences": {"note": "Protein sequences, listed by entry. Tags and fused reporters are not part of them. Lines headed by an entry give the natural chain unless they say otherwise; changes in a name come on top.", "UniProt Q99832": "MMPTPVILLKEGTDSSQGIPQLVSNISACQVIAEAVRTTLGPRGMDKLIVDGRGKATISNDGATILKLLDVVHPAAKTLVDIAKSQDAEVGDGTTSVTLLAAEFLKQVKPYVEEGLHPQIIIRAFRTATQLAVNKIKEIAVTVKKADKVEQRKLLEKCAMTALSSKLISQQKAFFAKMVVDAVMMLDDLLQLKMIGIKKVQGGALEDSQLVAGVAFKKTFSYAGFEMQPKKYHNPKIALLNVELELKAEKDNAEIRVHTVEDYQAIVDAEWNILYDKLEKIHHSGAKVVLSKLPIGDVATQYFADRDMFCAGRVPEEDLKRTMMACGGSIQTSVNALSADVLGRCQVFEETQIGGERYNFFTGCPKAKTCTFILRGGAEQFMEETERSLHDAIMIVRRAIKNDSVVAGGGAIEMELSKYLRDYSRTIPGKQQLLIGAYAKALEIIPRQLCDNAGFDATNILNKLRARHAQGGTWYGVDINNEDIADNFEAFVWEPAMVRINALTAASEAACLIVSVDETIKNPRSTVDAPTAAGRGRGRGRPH"},
  "source": "the supplement of paper PMC11732987",
  "about": "“Enantioselective OTUD7B fragment discovery through chemoproteomics screening and high-throughput optimisation” (Communications Chemistry, 2025)",
  "note": "The other results are listed elsewhere or left out. The data scatter; read single values as rough.",
  "data": [
    {"molecular_target": "T1, CCT7 C29 (UniProt Q99832)", "T1 sequence (whole entry)": "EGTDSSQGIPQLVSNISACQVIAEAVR", "experiment": "log2 mean competition ratio of IA-DTB cysteine labelling (DMSO/compound) (log2 ratio); higher = stronger cysteine engagement by compound", "settings": "50 µM; treatment time: 4 h; cell line lysate: HEK293T", "method": "(§1)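 IA-DTB competitive cysteine chemoproteomics in HEK293T RIPA lysate. Lysates were treated with compound 29 or 30 at 50 or 200 µM for 4 h, then IA-DTB (500 µM, 1 h), trypsin-digested, NeutrAvidin-enriched and analysed by diaPASEF. Competition ratio = intensity DMSO / intensity compound (n=4 treated, n=64 DMSO); binding: mean log2 CR ≥ 1 and p ≤ 0.05 plus QC filters. Target is the cysteine site.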", "values": [
      {"compound": "O=C(CCl)N[C@H]1CCCc2ccccc21", "log2 mean competition ratio": 0.137},
      {"compound": "O=C(CCl)N[C@@H]1CCCc2ccccc21", "log2 mean competition ratio": 0.147}
    ]},
    {"molecular_target": "T1, CCT7 C29", "experiment": "log2 mean competition ratio of IA-DTB cysteine labelling (DMSO/compound) (log2 ratio); higher = stronger cysteine engagement by compound", "settings": "200 µM; treatment time: 4 h; cell line lysate: HEK293T", "method": "as §1", "values": [
      {"compound": "O=C(CCl)N[C@H]1CCCc2ccccc21", "log2 mean competition ratio": -0.189},
      {"compound": "O=C(CCl)N[C@@H]1CCCc2ccccc21", "log2 mean competition ratio": -0.131}
    ]}
  ]
}
